PubChem BioAssay AID504467 (National Center for Advancing Translational Sciences (NCATS), 2011)
In all, about 330,000 compounds went through this assay and about 7,700 (2.3%) were called active. Inconclusive means that the source gave no clear call. Such entries were picked first, then a sample of the others. Calls come from the whole dose curve; as a rule, active = well fitted inhibition curve with a large enough effect; inconclusive = small, poorly fitted or top-dose-only effect, or effect the other way; inactive = flat fitted curve, though single readings scatter. Potencies beside an inconclusive call are fits to weak or partial responses and may not hold up.

experiment: qHTS screen for small molecules that inhibit ELG1-dependent DNA repair in human embryonic kidney (HEK293T) cells expressing luciferase-tagged ELG1; details: HEK293T ELG1-luciferase reporter, luminescence, 16 h, DNA damage induced by 5-fluorouridine; activity change, negative = inhibition: at 46.1 µM (top of the series); note: nearly all actives have a fitted effect of over 55% in size
Procedure, shortened: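 Overnight (16 hr) co-exposure of 2,000 cells/well to 5-fluorouridine and compound at 37 °C preceded detection. Luciferase was quantified via ONE-Glo luminescence; loss of signal denotes inhibition.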
% is set by controls: 0 for no effect and ±100 for the full control effect; potency is the fitted concentration of half-maximal effect.

Row | SMILES | activity change, negative = inhibition | Potency
1 | CCc1cc(C(=O)OC)c(NC(=O)CCC(=O)O)s1 | inactive: 11.4% | –
2 | COc1ccc(COCC(O)CN2CCN(S(=O)(=O)c3ccc(C(C)C)cc3)CC2)cc1 (stereo not drawn) | – | active: 13 µM
3 | Cc1ccc(-c2ccc(/C=C3\SC(N4CCOCC4)=NC3=O)o2)cc1 | – | inconclusive: 16.4 µM [inhibitor, single point]
4 | Cc1sc2ncnc(N3CCC(C(=O)N(C)CC(=O)Nc4ccccc4Br)CC3)c2c1C | – | inconclusive: 18.3 µM [inhibitor, single point]
5 | N#C/C(=C\c1ccc(-c2ccc(S(=O)(=O)N3CCOCC3)cc2)o1)C(=O)NC1CC1 | – | inconclusive: 23.1 µM [inhibitor, partial curve]
6 | CC1(C)CC(=O)c2sc(NC(=O)CN3CCCCC3)nc2C1 | inactive: 17.6% | –
7 | CN(C)S(=O)(=O)c1ccc(C(=O)Nc2nc3ccccc3[nH]2)cc1 | – | inconclusive: 20.6 µM [activator, partial curve]
8 | CCOC(=O)c1cc(C(=O)c2cccs2)n2ccc(C(C)=O)cc12 | – | inconclusive: 20.6 µM [inhibitor, single point]
9 | O=C(Nc1cccc(O)c1)c1ccc(C(F)(F)F)cc1 | – | inconclusive: 13 µM [activator, partial curve]
10 | O=[N+]([O-])c1cccc(-c2ncc3ccccn23)c1 | – | inconclusive: 23.1 µM [activator, single point]
11 | CNC(=S)N=Nc1c(O)[nH]c2ccccc12 | – | inconclusive: 29.1 µM [activator, single point]
12 | Cc1ccccc1-n1c(SCC(=O)NC(N)=O)nc2sc(-c3ccccc3)cc2c1=O | – | inconclusive: 29.1 µM [inhibitor, single point]
13 | O=C(COC(=O)c1ccc2ncsc2c1)Nc1ccc(OC(F)(F)F)cc1 | – | inconclusive: 23.1 µM [activator, single point]
14 | CCC(C)(C)n1nnnc1C(c1ccc2ncccc2c1)N1CCN(c2nc3ccccc3s2)CC1 (stereo not drawn) | – | inconclusive: 16.4 µM [inhibitor, partial curve, poor fit]
15 | CC(C)COC(=O)N1CC(O)CC1C(=O)Nc1ccc2c(c1)OCO2 (stereo not drawn) | – | inconclusive: 35.5 µM [activator, single point]
16 | O=C(NNC(=O)c1cccs1)c1ccc(Cl)cc1 | – | inconclusive: 18.4 µM [activator, partial curve]
17 | CCCC(=O)Nc1ccc(-c2cn3cccnc3n2)cc1 | – | inconclusive: 20.6 µM [activator, single point]
18 | CCn1nnc(NC(=O)c2ccc(C(C)(C)C)cc2)n1 | – | inconclusive: 17.8 µM [activator, partial curve, poor fit]
19 | CC(=O)Nc1ccc(NC(=O)c2cccc(C(=O)OC(C)C)n2)cc1 | – | inconclusive: 0.103 µM [activator, full curve, poor fit]
20 | Cc1ccc(Cn2ncc3c(N4CCN(CC#N)CC4)ncnc32)cc1 | – | inconclusive: 29.1 µM [inhibitor, single point]
21 | CCc1nn(-c2cc(Oc3cccc4ccccc34)nc(-c3ccccc3)n2)c(N)c1C#N | – | inconclusive: 20.6 µM [activator, partial curve, poor fit]
22 | COC(=O)c1cnn2c3c(c(C)nc12)CCCC3 | – | inconclusive: 18.4 µM [activator, partial curve]

From entry 19 as far as 21, copied from above:
Row | SMILES | activity change, negative = inhibition | Potency
19 | CC(=O)Nc1ccc(NC(=O)c2cccc(C(=O)OC(C)C)n2)cc1 | – | inconclusive: 0.103 µM [activator, full curve, poor fit]
20 | Cc1ccc(Cn2ncc3c(N4CCN(CC#N)CC4)ncnc32)cc1 | – | inconclusive: 29.1 µM [inhibitor, single point]
21 | CCc1nn(-c2cc(Oc3cccc4ccccc34)nc(-c3ccccc3)n2)c(N)c1C#N | – | inconclusive: 20.6 µM [activator, partial curve, poor fit]

Later entries:

Row | SMILES | activity change, negative = inhibition | Potency
23 | COc1cc(C(=O)NNC(=O)CCOc2cccc(Br)c2)cc(OC)c1OC | – | inconclusive: 18.3 µM [inhibitor, single point]
24 | Cc1ccc(C(=O)Nc2nccc(-c3cccs3)n2)cc1 | inactive: 10.6% | –
25 | CCC1CCc2sc(C(=O)NNC(=S)NCC3CCCO3)cc2C1 (stereo not drawn) | inactive: 9.49% | –
26 | CCc1cc(=O)oc2c3c(cc(OCC(=O)NCCCOC)c12)OC(C)(C)CC3 | inactive: -5.79% | –
27 | CCC(C)(C)c1nnc(NC(=O)c2ccc([N+](=O)[O-])cc2)s1 | – | inconclusive: 5.17 µM [activator, partial curve]
28 | COc1ccc(-c2[nH]ncc2CN2CCCO2)cc1F | inactive: 1.44% | –
29 | CCOc1ccccc1N1CCN(C2=C(NS(=O)(=O)c3cccs3)C(=O)c3ccccc3C2=O)CC1 | – | active: 23.1 µM
30 | O=c1[nH]c(SCC2CCCCO2)nc2ccccc12 (stereo not drawn) | – | inconclusive: 14.6 µM [activator, partial curve]
31 | COc1ccc(NC(=O)CSc2nc3ccccc3nc2N2CCCCC2)cc1 | – | inconclusive: 25.9 µM [inhibitor, partial curve, poor fit]
32 | CNCCC(=O)N1c2ccccc2CCc2ccc(NC(=O)OC)cc21 | inactive: -6.06% | –
33 | Cc1sc2nc(CN3CCOCC3)nc(Oc3ccc(NC(=O)c4ccco4)cc3)c2c1C | – | inconclusive: 14.6 µM [inhibitor, partial curve]
34 | COC(=O)Nc1cc(C)n(-c2ccccc2)n1 | – | inconclusive: 5.8 µM [activator, partial curve, poor fit]
35 | NS(=O)(=O)c1cc(C(=O)OCC(=O)Nc2ccc(Cl)cc2[N+](=O)[O-])ccc1Cl | inactive: -10.7% | –
36 | CN(CC(=O)Nc1ccccc1Cl)C(=O)COC(=O)c1ccccc1[N+](=O)[O-] | – | inconclusive: 11.6 µM [activator, single point]
37 | Cc1cc(C(=O)CSc2nn3c(=O)c(C(C)(C)C)nnc3s2)c(C)n1C1CC1 | inactive: -1.42% | –
38 | CC(C)CC(=O)NS(=O)(=O)c1ccc(NC(=O)c2ccco2)cc1 | – | inconclusive: 20.6 µM [inhibitor, partial curve]
39 | C#CCNC(=O)C1=C[C@@H](c2ccc(C(F)(F)F)cc2)C[C@@H](OCCCCO)O1 | inactive: -3.16% | –
40 | C=CCc1ccc(OCCCOc2ccc(C(=O)O)cc2)c(OC)c1 | – | inconclusive: 13 µM [activator, single point]
41 | O=C(CN1C(=O)CSc2ccc(S(=O)(=O)N3CCOCC3)cc21)NCCCN1CCCCC1 | – | inconclusive: 11.6 µM [activator, partial curve, poor fit]
42 | [O-]/[N+](=C/c1ccccc1)c1ccccc1 | – | inconclusive: 23.1 µM [activator, single point]
43 | O=C1CCC(C(=O)N2CCCO2)CN1Cc1cccc(C(F)(F)F)c1 (stereo not drawn) | – | inconclusive: 16.4 µM [activator, single point]
